Laboratory results reported in the supplement of paper PMC11732987, “Enantioselective OTUD7B fragment discovery through chemoproteomics screening and high-throughput optimisation” (Communications Chemistry, 2025).
This is one part of the list. The data scatter; read single values as rough.

Legend:
[1] = compound: ClCC(=O)N[C@@H]1CCCc2ccccc12; assay: log2 mean competition ratio of IA-DTB cysteine labelling (DMSO/compound) (log2 ratio); higher = stronger cysteine engagement by compound; details: treatment time: 4 h, cell line lysate: HEK293T
Experimental: (§1)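 IA-DTB competitive cysteine chemoproteomics in HEK293T RIPA lysate. Lysates were treated with compound 29 or 30 at 50 or 200 µM for 4 h, then IA-DTB (500 µM, 1 h), trypsin-digested, NeutrAvidin-enriched and analysed by diaPASEF. Competition ratio = intensity DMSO / intensity compound (n=4 treated, n=64 DMSO); binding: mean log2 CR ≥ 1 and p ≤ 0.05 plus QC filters. Target is the cysteine site.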

[2] = compound: ClCC(=O)N[C@H]1CCCc2ccccc12; assay: as above; details: treatment time: 4 h, cell line lysate: HEK293T
Experimental: as §1

Target	log2 mean competition ratio ([1]; 50 µM)	log2 mean competition ratio ([1]; 200 µM)	log2 mean competition ratio ([2]; 50 µM)	log2 mean competition ratio ([2]; 200 µM)
NOP16 C36 (UniProt Q9Y3C1)	0.351	-0.304	0.217	-0.312
NOA1 C505 (UniProt Q8NC60)	0.261	0.252	0.246	0.0984
NCAPG C202 (UniProt Q9BPX3)	-0.0255	0.152	0.0821	0.189
NOL8 C578 (UniProt Q76FK4)	0.139	0.0066	0.583	0.116
NIF3L1 C213 (UniProt Q9GZT8)	0.144	-0.161	0.174	-0.139
NDRG3 C290 (UniProt Q9UGV2)	-0.0481	0.0479	0.279	0.202
NF1 C904 (UniProt P21359)	0.373	0.206	0.463	0.174
NEMF C663 (UniProt O60524)	-0.366	-0.146	-0.213	0.214
NDRG3 C375 (UniProt Q9UGV2)	-0.0995	0.0374	0.0425	0.0666
NDUFS2 C347 (UniProt O75306)	0.431	0.238	1.01	0.362
NDUFA10 C112 (UniProt O95299)	-0.0416	0.308	0.0297	0.104
NFX1 C32 (UniProt Q12986)	-0.2	0.0664	-0.0994	0.103
NBN C487 (UniProt O60934)	0.349	0.327	0.164	0.293
NIBAN2 C512 (UniProt Q96TA1)	-0.0689	0.17	0.0634	0.195
NEK1 C1051 (UniProt Q96PY6)	0.0614	0.178	0.0659	0.214
NFATC4 C350 (UniProt Q14934)	-0.129	-0.339	-0.0235	-0.173
NKTR C738 (UniProt P30414)	-0.134	0.118	-0.0118	0.000625
NIBAN2 C405 (UniProt Q96TA1)	0.0434	0.0582	0.139	0.0761
NAT14 C108 (UniProt Q8WUY8)	-0.163	0.0532	0.255	0.0994
NCAPG C119 (UniProt Q9BPX3)	0.113	0.0215	-0.00275	-0.0849
NLE1 C280 (UniProt Q9NVX2)	-0.108	-0.186	-0.0818	-0.287
NEK6 C40 (UniProt Q9HC98)	-0.0813	0.373	-0.475	-0.123
NF1 C1711 (UniProt P21359)	-0.21	-0.0908	-0.0263	-0.124
NHSL1 C1471 (UniProt Q5SYE7)	-0.226	-0.367	-0.0421	-0.438

Target	log2 mean competition ratio ([1]; 50 µM)	log2 mean competition ratio ([1]; 200 µM)	log2 mean competition ratio ([2]; 50 µM)	log2 mean competition ratio ([2]; 200 µM)
NAV1 C1651 (UniProt Q8NEY1)	-0.104	-0.0747	-0.106	-0.0926
NEK9 C878 (UniProt Q8TD19)	-0.014	0.0567	0.331	0.136
NCAPD3 C15 (UniProt P42695)	0.596	0.218	-0.0208	-0.181
NOL6 C665 (UniProt Q9H6R4)	-0.012	0.0444	-0.239	0.102
NCAPD2 C596 (UniProt Q15021)	0.538	-0.102	-0.221	0.536
NIFK C269 (UniProt Q9BYG3)	-0.0807	-0.0457	0.059	0.0759
NLRX1 C310 (UniProt Q86UT6)	–	-0.0529	–	0.0472
NEK7 C298 (UniProt Q8TDX7)	-0.126	0.0382	-0.00342	0.116
NDUFB7 C80 (UniProt P17568)	–	0.338	–	0.453
NCAPH2 C309 (UniProt Q6IBW4)	–	–	-0.037	0.0412
NCK1 C139 (UniProt P16333)	–	–	-0.322	0.0884
NCAPD3 C1389 (UniProt P42695)	0.286	-0.119	0.48	-0.0689
NDUFS1 C75 (UniProt P28331)	–	–	0.0225	0.0435
NEK9 C260 (UniProt Q8TD19)	-0.237	0.131	-0.712	0.312
NNT C1073 (UniProt Q13423)	–	–	-0.0418	0.145
NCKAP1 C556 (UniProt Q9Y2A7)	–	–	0.407	-0.347
NOCT C114 (UniProt Q9UK39)	–	–	–	0.0742
NDUFAB1 C140 (UniProt O14561)	–	–	-0.264	-0.519
NEK4 C326 (UniProt P51957)	–	–	0.0386	-0.146
NBEA C2007 (UniProt Q8NFP9)	–	–	0.109	-0.183
NHSL1 C524 (UniProt Q5SYE7)	–	–	0.169	0.308
NIN C647 (UniProt Q8N4C6)	–	–	-0.00565	0.141
NDC1 C369 (UniProt Q9BTX1)	–	–	-0.472	-0.316

Full records, quoted from the list. Values in the order: log2 mean competition ratio ([1]; 50 µM)	log2 mean competition ratio ([1]; 200 µM)	log2 mean competition ratio ([2]; 50 µM)	log2 mean competition ratio ([2]; 200 µM)
NNT C1073 (UniProt Q13423) in the list: –	–	-0.0418	0.145
NCAPD3 C15 (UniProt P42695) in the list: 0.596	0.218	-0.0208	-0.181
